The list does not hold the whole screen: it gathers tests that were run many times, whatever their T/C, doses with no T/C, and many T/C values between a quarter and a half above the control. Other doses and runs of a compound stand elsewhere. T/C: endpoint of the treated group in % of that of the vehicle group. Schedules are NCI's codes, read here as Q, the interval in days (D) or hours (H), X, the number of doses. Some entries give survivors of the animals treated and no T/C: the source files T/C as zero there, which appears to mark a toxic dose or a test without result, not a measured value. Some doses without a T/C left all or most animals alive at the check, yet need not have been tolerated: survival well below the control is almost never listed, so the zero probably covers shortened survival too. Counts of survivors are from the toxicity check (mostly the fifth day) where no day follows; animals may have died later. Some doses were run more than once; the results are listed from low to high. For survival time, the PubChem record calls one and a half times the control and up active, and a quarter to a half above the control has no call in these data; cut-offs in other NCI protocols can differ.
System: Lewis lung carcinoma i.m., BDF1 mice, T/C %
Assay: NCI In Vivo Anticancer Drug Screen. Data for tumor model Lewis Lung Carcinoma (intramuscular) in B6D2F1 (BDF1) mice
Outline: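 Value is the ratio of a treated-group measurement (T) to the matching vehicle-control measurement (C), using either survival or tumour size in mice bearing transplanted tumours.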

[1] = T/C endpoint: median survival time, dose: 100.0 mg/kg/injection, schedule: Q01DX011 (ip), vehicle: saline with Tween-80, higher T/C = longer survival
[2] = T/C endpoint: median survival time, dose: 2.0 mg/kg/injection, schedule: Q01DX011 (ip), vehicle: saline, higher T/C = longer survival
[3] = T/C endpoint: median survival time, dose: 4.0 mg/kg/injection, schedule: Q01DX011 (ip), vehicle: saline, higher T/C = longer survival
[4] = T/C endpoint: median survival time, dose: 40.0 mg/kg/injection, schedule: Q01DX011 (ip), vehicle: saline with Tween-80, higher T/C = longer survival
[5] = T/C endpoint: median survival time, dose: 160.0 mg/kg/injection, schedule: Q01DX011 (ip), vehicle: saline, higher T/C = longer survival
[6] = T/C endpoint: median survival time, dose: 0.25 mg/kg/injection, schedule: Q01DX011 (ip), vehicle: water, higher T/C = longer survival
[7] = T/C endpoint: median survival time, dose: 1.0 mg/kg/injection, schedule: Q01DX011 (ip), vehicle: water, higher T/C = longer survival
[8] = T/C endpoint: median survival time, dose: 2.0 mg/kg/injection, schedule: Q01DX011 (ip), vehicle: water, higher T/C = longer survival
[9] = T/C endpoint: median survival time, dose: 4.0 mg/kg/injection, schedule: Q01DX011 (ip), vehicle: water, higher T/C = longer survival

CN(C)C(=O)c1cccc(COc2ccc(N3C(N)=NC(N)=NC3(C)C)cc2Cl)c1
survivor count (T/C endpoint: mean tumor weight, dose: 6.25 mg/kg/injection, schedule: Q01DX011 (ip), vehicle: saline, higher T/C = larger tumour): 4 of 8 | survivor count (T/C endpoint: median survival time, dose: 6.25 mg/kg/injection, schedule: Q01DX011 (ip), vehicle: saline, higher T/C = longer survival): 4 of 8 | survivor count (T/C endpoint: median survival time, dose: 25.0 mg/kg/injection, schedule: Q01DX011 (ip), vehicle: saline, higher T/C = longer survival): 0 of 8

CCCCC/C(C)=N\Nc1ccccn1
survivor count (T/C endpoint: median survival time, dose: 12.5 mg/kg/injection, schedule: Q01DX011 (ip), vehicle: saline with Tween-80, higher T/C = longer survival): 8 of 8 | survivor count [1]: 0 of 8

COc1cc2c(c(OC)c1OC)-c1ccc(OC)c(=O)cc1[C@@H](NC=O)CC2
survivor count [2]: 0 of 8 | survivor count [3]: 0 of 8

c1ccc(OCCC[P+](c2ccccc2)(c2ccccc2)c2ccccc2)cc1
survivor count (T/C endpoint: median survival time, dose: 5.0 mg/kg/injection, schedule: Q01DX011 (ip), vehicle: saline with Tween-80, higher T/C = longer survival): 4 of 8 | survivor count (T/C endpoint: median survival time, dose: 10.0 mg/kg/injection, schedule: Q01DX011 (ip), vehicle: saline with Tween-80, higher T/C = longer survival): 5 of 8 | survivor count (T/C endpoint: median survival time, dose: 20.0 mg/kg/injection, schedule: Q01DX011 (ip), vehicle: saline with Tween-80, higher T/C = longer survival): 3 of 8 | survivor count [4]: 5 of 8

COc1ccc(C(=O)/C(Br)=C/C(=O)O)cc1
survivor count (T/C endpoint: mean tumor weight, dose: 20.0 mg/kg/injection, schedule: Q01DX011 (ip), vehicle: saline, higher T/C = larger tumour): 5 of 8 | survivor count (T/C endpoint: median survival time, dose: 20.0 mg/kg/injection, schedule: Q01DX011 (ip), vehicle: saline, higher T/C = longer survival): 5 of 8 | survivor count (T/C endpoint: median survival time, dose: 40.0 mg/kg/injection, schedule: Q01DX011 (ip), vehicle: saline, higher T/C = longer survival): 6 of 8 | survivor count (T/C endpoint: median survival time, dose: 80.0 mg/kg/injection, schedule: Q01DX011 (ip), vehicle: saline, higher T/C = longer survival): 0 of 8 | survivor count [5]: 0 of 8

O=C1NC(=O)C(F)(F)C(O)N1 (centres undefined)
T/C [5]: 142 % of control | survivor count (T/C endpoint: median survival time, dose: 320.0 mg/kg/injection, schedule: Q01DX011 (ip), vehicle: saline, higher T/C = longer survival): 0 of 8 | survivor count (T/C endpoint: median survival time, dose: 640.0 mg/kg/injection, schedule: Q01DX011 (ip), vehicle: saline, higher T/C = longer survival): 0 of 8

COc1cc2c3c(c4ccc(OC)c(OC)c4c2cc1OC)CN1CCC[C@@H]1C3
survivor count (T/C endpoint: mean tumor weight, dose: 16.0 mg/kg/injection, schedule: Q01DX011 (ip), vehicle: Klucel (hydroxypropylcellulose) (HPC), higher T/C = larger tumour): 5 of 8 | survivor count (T/C endpoint: median survival time, dose: 16.0 mg/kg/injection, schedule: Q01DX011 (ip), vehicle: Klucel (hydroxypropylcellulose) (HPC), higher T/C = longer survival): 6 of 8

CCCC(=O)Nc1ncnc2c1ncn2C1OC2COP(=O)(O)OC2C1OC(=O)CCC (centres undefined)
survivor count (T/C endpoint: median survival time, dose: 200.0 mg/kg/injection, schedule: Q01DX011 (ip), vehicle: saline, higher T/C = longer survival): 7 of 7

O=NN(CCCl)C(=O)Nc1ccc(CCO)cc1
survivor count (T/C endpoint: median survival time, dose: 12.5 mg/kg/injection, schedule: Q07DX003 (ip), vehicle: Klucel (hydroxypropylcellulose) (HPC), higher T/C = longer survival): 5 of 8 | survivor count (T/C endpoint: median survival time, dose: 25.0 mg/kg/injection, schedule: Q07DX003 (ip), vehicle: Klucel (hydroxypropylcellulose) (HPC), higher T/C = longer survival): 2 of 8 | survivor count (T/C endpoint: median survival time, dose: 50.0 mg/kg/injection, schedule: Q07DX003 (ip), vehicle: Klucel (hydroxypropylcellulose) (HPC), higher T/C = longer survival): 1 of 8 | survivor count (T/C endpoint: median survival time, dose: 100.0 mg/kg/injection, schedule: Q07DX003 (ip), vehicle: Klucel (hydroxypropylcellulose) (HPC), higher T/C = longer survival): 4 of 8 | survivor count (T/C endpoint: median survival time, dose: 200.0 mg/kg/injection, schedule: Q07DX003 (ip), vehicle: Klucel (hydroxypropylcellulose) (HPC), higher T/C = longer survival): 0 of 8

CO[C@@]12[C@H](COC(N)=O)C3=C(C(=O)C(C)=C(N)C3=O)N1C[C@@H]1N[C@@H]12
T/C [6]: 125 and 133 % of control | T/C (T/C endpoint: median survival time, dose: 1.0 mg/kg/injection, schedule: Q01DX005 (ip), vehicle: other, higher T/C = longer survival): 142 % of control | survivor count (T/C endpoint: median survival time, dose: 1.0 mg/kg/injection, schedule: Q01DX009 (ip), vehicle: Klucel (hydroxypropylcellulose) (HPC), higher T/C = longer survival): 10 of 10 | survivor count (T/C endpoint: median survival time, dose: 1.0 mg/kg/injection, schedule: Q01DX011 (ip), vehicle: saline, higher T/C = longer survival): 8 of 8 | survivor count [7]: 10 of 10 | survivor count (T/C endpoint: median survival time, dose: 2.0 mg/kg/injection, schedule: Q01DX005 (ip), vehicle: saline, higher T/C = longer survival): 4 of 8 | survivor count (T/C endpoint: median survival time, dose: 2.0 mg/kg/injection, schedule: Q01DX009 (ip), vehicle: Klucel (hydroxypropylcellulose) (HPC), higher T/C = longer survival): 10 of 10 | survivor count [2]: 1 of 8 | survivor count [8]: 0 of 10 and 7 of 10 | survivor count (T/C endpoint: median survival time, dose: 4.0 mg/kg/injection, schedule: Q01DX005 (ip), vehicle: other, higher T/C = longer survival): 0 of 8 | survivor count (T/C endpoint: median survival time, dose: 4.0 mg/kg/injection, schedule: Q01DX005 (ip), vehicle: saline, higher T/C = longer survival): 0 of 8 | survivor count (T/C endpoint: median survival time, dose: 4.0 mg/kg/injection, schedule: Q01DX009 (ip), vehicle: Klucel (hydroxypropylcellulose) (HPC), higher T/C = longer survival): 10 of 10 | survivor count [3]: 0 of 8 | survivor count [9]: 0 of 10 and 2 of 10 | survivor count (T/C endpoint: median survival time, dose: 8.0 mg/kg/injection, schedule: Q01DX005 (ip), vehicle: other, higher T/C = longer survival): 0 of 8 | survivor count (T/C endpoint: median survival time, dose: 8.0 mg/kg/injection, schedule: Q01DX005 (ip), vehicle: saline, higher T/C = longer survival): 0 of 8 | survivor count (T/C endpoint: median tumor weight (est.), dose: 2.0 mg/kg/injection, schedule: Q01DX005 (ip), vehicle: saline, higher T/C = larger tumour): 4 of 8

CC[C@]1(O)C[C@H]2CN(CCc3c([nH]c4ccccc34)[C@@](C(=O)OC)(c3cc4c(cc3OC)N(C=O)[C@H]3[C@@](O)(C(=O)OC)[C@H](OC(C)=O)[C@]5(CC)C=CCN6CC[C@]43[C@@H]65)C2)C1
survivor count (T/C endpoint: mean tumor weight (est.), dose: 0.39 mg/kg/injection, schedule: Q01DX009 (ip), vehicle: water, higher T/C = larger tumour): 0 of 4 | T/C (T/C endpoint: mean tumor weight, dose: 0.06 mg/kg/injection, schedule: Q01DX011 (ip), vehicle: water, evaluated on day 12, higher T/C = larger tumour): 133 % of control | survivor count (T/C endpoint: mean tumor weight, dose: 0.39 mg/kg/injection, schedule: Q01DX009 (ip), vehicle: water, higher T/C = larger tumour): 3 of 8 | survivor count (T/C endpoint: mean tumor weight, dose: 0.5 mg/kg/injection, schedule: Q01DX011 (ip), vehicle: water, higher T/C = larger tumour): 1 of 8 | T/C (T/C endpoint: median survival time, dose: 0.14 mg/kg/injection, schedule: Q01DX009 (ip), vehicle: water, higher T/C = longer survival): 143 % of control | T/C (T/C endpoint: median survival time, dose: 0.14 mg/kg/injection, schedule: Q09DX009 (ip), vehicle: water, evaluated on day 10, higher T/C = longer survival): 125 % of control | T/C (T/C endpoint: median survival time, dose: 0.14 mg/kg/injection, schedule: Q09DX009 (ip), vehicle: water, evaluated on day 50, higher T/C = longer survival): 125 % of control | T/C (T/C endpoint: median survival time, dose: 0.23 mg/kg/injection, schedule: Q09DX009 (ip), vehicle: water, evaluated on day 10, higher T/C = longer survival): 125 % of control | T/C (T/C endpoint: median survival time, dose: 0.23 mg/kg/injection, schedule: Q09DX009 (ip), vehicle: water, evaluated on day 50, higher T/C = longer survival): 125 % of control | survivor count [6]: 1 of 10 and 7 of 10 | survivor count (T/C endpoint: median survival time, dose: 0.39 mg/kg/injection, schedule: Q01DX009 (ip), vehicle: water, higher T/C = longer survival): 3 of 8 | survivor count (T/C endpoint: median survival time, dose: 0.39 mg/kg/injection, schedule: Q09DX009 (ip), vehicle: water, higher T/C = longer survival): 4 of 8 | survivor count (T/C endpoint: median survival time, dose: 0.5 mg/kg/injection, schedule: Q01DX011 (ip), vehicle: water, higher T/C = longer survival): 0 of 10, 1 of 8, 2 of 10 | survivor count (T/C endpoint: median survival time, dose: 0.65 mg/kg/injection, schedule: Q01DX009 (ip), vehicle: water, higher T/C = longer survival): 0 of 8 | survivor count [7]: 0 of 10 and 0 of 8 | survivor count [8]: 0 of 10 | survivor count [9]: 0 of 10

CC1([CH2][Hg][I])CS(=O)(=O)CC(C)([CH2][Hg][I])O1 (centres undefined)
survivor count (T/C endpoint: mean tumor weight (est.), dose: 40.0 mg/kg/injection, schedule: Q01DX011 (ip), vehicle: saline with Tween-80, higher T/C = larger tumour): 4 of 8 | survivor count [4]: 4 of 8 | survivor count (T/C endpoint: median survival time, dose: 80.0 mg/kg/injection, schedule: Q01DX011 (ip), vehicle: saline with Tween-80, higher T/C = longer survival): 0 of 8

COc1cc([C@@H]2c3cc4c(cc3[C@H](O)[C@H]3COC(=O)[C@H]23)OCO4)cc(OC)c1OC
T/C (T/C endpoint: mean tumor weight, dose: 0.13 mg/kg/injection, schedule: Q01DX011 (ip), vehicle: Klucel (hydroxypropylcellulose) (HPC), evaluated on day 12, higher T/C = larger tumour): 135 % of control | survivor count (T/C endpoint: mean tumor weight, dose: 1.0 mg/kg/injection, schedule: Q01DX011 (ip), vehicle: Klucel (hydroxypropylcellulose) (HPC), higher T/C = larger tumour): 4 of 8 | survivor count (T/C endpoint: mean tumor weight, dose: 2.0 mg/kg/injection, schedule: Q01DX011 (ip), vehicle: Klucel (hydroxypropylcellulose) (HPC), higher T/C = larger tumour): 2 of 8 | survivor count (T/C endpoint: median survival time, dose: 1.0 mg/kg/injection, schedule: Q01DX011 (ip), vehicle: Klucel (hydroxypropylcellulose) (HPC), higher T/C = longer survival): 6 of 8

O=[N+]([O-])c1cc([N+](=O)[O-])c(Nn2c3ccccc3c3ccccc32)c([N+](=O)[O-])c1
survivor count [1]: 1 of 8

Source: PubChem BioAssay AID272 (DTP/NCI, 2004)
